# Experimental data taken from US20110130386A1, “DNA-PK INHIBITORS” (priority 2008, published 2011).
# Some entries share one result that the patent states for a list of compounds.
# Tested on: HeLa cells
# Test: Survival Enhancement Ratio (clonogenic survival after 2 Gray irradiation)
# Assay type: cell-based, human
# Method: The Survival Enhancement Ratio (SER) is a ratio of the enhancement of cell kill elicited by the DNA-PK inhibitor after 2 Grays of irradiation compared to […]. DNA-PK inhibitors were used at a concentration of 25, 50, 100 and/or 500 nM. Radiation was delivered by a Faxitron 43855D machine at a dose rate of 1 Gy pre minute The SER at 2 Gray irradiation was calculated from the formula:
# The degree of cell killing was monitored by a standard clonogenic survival assay. Briefly, tissue culture treated 6-well plates were seeded with HeLa cells at an appropriate concentration to give 100-200 colonies per well and returned to the incubator in order to allow the cells to attach. Four hours later, compound or vehicle control was added to the cells. The cells were then incubated for 1 hour in the presence of inhibitor prior to irradiation at 2 Gray using a Faxitron 43855D cabinet X-ray machine. The cells were then incubated for a further 16 hours before the media was replaced with fresh media in the absence of DNA-PK inhibitor. After 8 days, colonies formed were fixed and stained with Giemsa (Sigma, Poole, UK) and scored using an automated colony counter (Oxford Optronics Ltd, Oxford, UK). The data was calculated as described above.
SMILES,SER (compound at 100 nM),SER (compound at 50 nM)
CN(C)C1CCCN(Cc2ccc(-c3cccc4c(=O)cc(N5CCOCC5)oc34)c3sc4ccccc4c23)C1 (centres unmarked) [4au],≥ 1.5,
CC(CN(C)C)NCc1ccc(-c2cccc3c(=O)cc(N4CCOCC4)oc23)c2sc3ccccc3c12 (centres unmarked) [4bk],≥ 1.5,
CC1CN(Cc2ccc(-c3cccc4c(=O)cc(N5CCOCC5)oc34)c3sc4ccccc4c23)CCN1C (centres unmarked) [4cb],≥ 1.5,
O=c1cc(N2CCOCC2)oc2c(-c3ccc(CNCCN4CCCCC4)c4c3sc3ccccc34)cccc12 [4co],≥ 1.5,
CN(C)[C@@H]1CCN(Cc2ccc(-c3cccc4c(=O)cc(N5CCOCC5)oc34)c3sc4ccccc4c23)C1 [4bv],≥ 1.5,
O=c1cc(N2CCOCC2)oc2c(-c3ccc(CNCCO)c4c3sc3ccccc34)cccc12 [4c],≥ 1.5,
COCCN1CCN(Cc2ccc(-c3cccc4c(=O)cc(N5CCOCC5)oc34)c3sc4ccccc4c23)CC1 [4t],≥ 1.5,≥ 1.5
CN(C)C1CCN(Cc2ccc(-c3cccc4c(=O)cc(N5CCOCC5)oc34)c3sc4ccccc4c23)C1 (centres unmarked) [4ah],≥ 1.5,≥ 1.5
CCN1CCN(Cc2ccc(-c3cccc4c(=O)cc(N5CCOCC5)oc34)c3sc4ccccc4c23)CC1 [4aq],≥ 1.5,≥ 1.5
CN1CCN(Cc2ccc(-c3cccc4c(=O)cc(N5CCOCC5)oc34)c3sc4ccccc4c23)CC1 [4v],≥ 1.5,≥ 1.5
CN(C)CCNCc1ccc(-c2cccc3c(=O)cc(N4CCOCC4)oc23)c2sc3ccccc3c12 [4d],≥ 1.5,≥ 1.5
CN(C)[C@H]1CCN(Cc2ccc(-c3cccc4c(=O)cc(N5CCOCC5)oc34)c3sc4ccccc4c23)C1 [4bu],≥ 1.5,≥ 1.5
CC(C)N1CCN(Cc2ccc(-c3cccc4c(=O)cc(N5CCOCC5)oc34)c3sc4ccccc4c23)CC1 [4aa],≥ 1.5,≥ 1.5
CN1CCCCC1CNCc1ccc(-c2cccc3c(=O)cc(N4CCOCC4)oc23)c2sc3ccccc3c12 (centres unmarked) [4bc],≥ 1.5,
CCN1CCCC1CNCc1ccc(-c2cccc3c(=O)cc(N4CCOCC4)oc23)c2sc3ccccc3c12 (centres unmarked) [4cn],≥ 1.5,
O=c1cc(N2CCOCC2)oc2c(-c3ccc(CN4CCCN(CCO)CC4)c4c3sc3ccccc34)cccc12 [4ad],≥ 1.5,≥ 1.5
O=c1cc(N2CCOCC2)oc2c(-c3ccc(CN4CCCNCC4)c4c3sc3ccccc34)cccc12 [4cr],≥ 1.5,
CN1CCC(NCc2ccc(-c3cccc4c(=O)cc(N5CCOCC5)oc34)c3sc4ccccc4c23)CC1 [4cl],≥ 1.5,
O=c1cc(N2CCOCC2)oc2c(-c3ccc(CN4CCN(CCO)CC4)c4c3sc3ccccc34)cccc12 [4ab],≥ 1.5,≥ 1.5
O=c1cc(N2CCOCC2)oc2c(-c3ccc(CN4CCC(O)C4)c4c3sc3ccccc34)cccc12 (centres unmarked) [4l],≥ 1.5,
CN1CCCC(NCc2ccc(-c3cccc4c(=O)cc(N5CCOCC5)oc34)c3sc4ccccc4c23)C1 (centres unmarked) [4ck],≥ 1.5,
O=c1cc(N2CCOCC2)oc2c(-c3ccc(CNCC4CCCO4)c4c3sc3ccccc34)cccc12 (centres unmarked) [4a],≥ 1.5,
O=c1cc(N2CCOCC2)oc2c(-c3ccc(CN4CCNCC4)c4c3sc3ccccc34)cccc12 [4k],≥ 1.5,
